Residue numbers refer to the chain shown, from its start. Names and notes keep the numbering of the source. These are yes or no findings as the source states them, for the method shown. Binding seen in cells or lysates may run through a third protein. Some binding calls cover weakened binding; strength is not graded here.
Assays:
Assay in all cases: cross-linking; in vivo cross-linking in the E. coli heterologous system; cellular extracts treated with formaldehyde, final 1% (w/w); 5 µg on 12% SDS-PAGE, Western blot with antibodies against Lo18
[1] = target: Lo18 small heat shock protein of Oenococcus oeni (Oenococcus oeni) (UniProt P94898)
[2] = target: Lo18 E60K (Oenococcus oeni) (UniProt P94898)
[3] = target: Lo18 T79V (Oenococcus oeni) (UniProt P94898)
[4] = target: Lo18 G82V (Oenococcus oeni) (UniProt P94898)
[5] = target: Lo18 R99D (Oenococcus oeni) (UniProt P94898)

B1: Lo18 small heat shock protein of Oenococcus oeni (protein, UniProt P94898 1-148)
chain: MANELMDRNDGLMDVSDMMGNLMNNFFGPRDGLWESARHNNSIMRTDISENDKEYGLKIELPGLDKKDIKIDYSNDNLTVSGVLSSKAEEKDKKNNVVRSERRYGNYSRSYYVPGVDENKISAKYENGILNLTLPKSDESQTHHIEIQ
For B1, the binding [1] was “binds”.

B2: Lo18 E60K (protein, UniProt P94898 1-148)
chain: B1 chain with E60K
B2 was tested, and the binding [2] was “binds weakly”.

B3: Lo18 T79V (protein, UniProt P94898 1-148)
chain: B1 chain with T79V
B3 was tested, and the binding [3] was “binds weakly”.

B4: Lo18 G82V (protein, UniProt P94898 1-148)
chain: B1 chain with G82V
B4 was tested, and the binding [4] was “binds”.

B5: Lo18 R99D (protein, UniProt P94898 1-148)
chain: B1 chain with R99D
With B5 the binding [5] was “binds weakly”.

Reference: PMC10624808
